This is one part of the list.
biological target: OsWRKY34 (Oryza sativa, UniProt Q0JBA9 1-250); experiment: protein-binding microarray (RPBM); PBS, 2% BSA, 51.3 ng/ul salmon testes DNA, 50 uM zinc acetate, 200 nM TF, 25 C, 1 h; high values mean tight binding; details: protein: recombinant; tags: N-terminal polyhistidine and DsRed monomer fusion (pET32a); label: CyDye5-dUTP incorporated in the synthesized complementary strand; 3' TTTTT single-stranded linker to array surface; dsDNA, one strand shown
Outline: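 The binding signal for each feature is its fluorescence intensity in arbitrary units. An Axon 4000B scanner was used to read a custom Agilent array that had been made double-stranded with Cy5-dUTP primer extension, blocked with 2% BSA, incubated at 25 °C for 1 h with 200 nM protein in PBS, 2% BSA, salmon testes DNA and 50 µM zinc acetate, and washed. The protein was an N-terminal polyhistidine–DsRed transcription factor fusion from E. coli BL21-CodonPlus, purified on Ni–NTA.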

By UniProt entry, the sequences of proteins in these tests, tags left out.
UniProt Q0JBA9, entry or part of it: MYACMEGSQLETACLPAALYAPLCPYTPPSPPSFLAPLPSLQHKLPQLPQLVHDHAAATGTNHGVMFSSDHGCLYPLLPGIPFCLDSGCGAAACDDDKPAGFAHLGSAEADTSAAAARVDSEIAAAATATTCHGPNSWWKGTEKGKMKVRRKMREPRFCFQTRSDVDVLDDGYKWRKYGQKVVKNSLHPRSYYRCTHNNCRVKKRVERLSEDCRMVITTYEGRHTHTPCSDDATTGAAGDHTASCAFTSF

Sequence	binding signal
TGCTATATATAAGGGACATGCTTTCCGTCGCGTCTCGTCTCGGAGTCACCTAGTGCAG	9200 fluorescence intensity (a.u.)
TTACTTGCCTGTTTGTACAGTGATATATCACATGTTAATACGGAGTCACCTAGTGCAG	9240 fluorescence intensity (a.u.)
TTTTTATATGTTTGGTTCTTATGAGTTCCTAAGTGTGAAACGGAGTCACCTAGTGCAG	8230 fluorescence intensity (a.u.)
CATGATTTTCCCTTTCAATTCGGTTTTAATTAATTCGTTGCGGAGTCACCTAGTGCAG	9330 fluorescence intensity (a.u.)
TTTGTCTGTTAGTGATGCCAACAATGCCATCCATCGATCTCGGAGTCACCTAGTGCAG	9110 fluorescence intensity (a.u.)
GACCTCACCCGGTTTTCCCTCGCACCGTTACAGCGATTCGCGGAGTCACCTAGTGCAG	8430 fluorescence intensity (a.u.)
CACACGCTCTCTGCTAGTCTGATCGCTCTCGCCATCGCACCGGAGTCACCTAGTGCAG	9640 fluorescence intensity (a.u.)
TGTTTGGGTTGAGCTTCACCAGCTTCTCCGCCACCGCCGACGGAGTCACCTAGTGCAG	9600 fluorescence intensity (a.u.)
CCTCGTCGTCGTCGTCTCCACCCAATCTCTCCCATTTCCACGGAGTCACCTAGTGCAG	10200 fluorescence intensity (a.u.)
ATCCTCACCTCACCTCCGCCATTTTCACTGCGGGCTTCCGCGGAGTCACCTAGTGCAG	11300 fluorescence intensity (a.u.)
CCATACCATGCGATGCCGGAGCCAACCCTTCCCATCAAATCGGAGTCACCTAGTGCAG	9120 fluorescence intensity (a.u.)
CAACACTGACATTGATTCTCAATTATTACTGCAGATGATGCGGAGTCACCTAGTGCAG	8180 fluorescence intensity (a.u.)
GCCACTTTTATTACAGCCATGCAGTATGTTCTTTTTTTTTCGGAGTCACCTAGTGCAG	9480 fluorescence intensity (a.u.)
TCTCCTCTGACCTGCACCATACCCGGCCTACCTCACCTTCCGGAGTCACCTAGTGCAG	10200 fluorescence intensity (a.u.)
ACCATATATTTTTCCTGCAATCCTGCCTTTATCTTGTTTCCGGAGTCACCTAGTGCAG	9080 fluorescence intensity (a.u.)
TTTCCTTCCTACTTTTCTCAAGGAATCTGCTTCCAACCACCGGAGTCACCTAGTGCAG	8110 fluorescence intensity (a.u.)
CCACGGTGTCACCTCGCGCCCCGCCGCTTTCTCTCCTCTTCGGAGTCACCTAGTGCAG	10100 fluorescence intensity (a.u.)
TCACTAGTTAGCAAGTCCTACCTATGCGGCCATCCAAGCACGGAGTCACCTAGTGCAG	9170 fluorescence intensity (a.u.)
TACCGCAACGGCAGTTTCCGTATTCACCTCCCCATACTTTCGGAGTCACCTAGTGCAG	8340 fluorescence intensity (a.u.)
GGCTTTCCTTCCTGAAGCCGTCCTCATCGTCATCATCTCGCGGAGTCACCTAGTGCAG	8320 fluorescence intensity (a.u.)
ATACAGTTACCTTTTTCGCATCTTTTCCCAAGCCCGTAGTCGGAGTCACCTAGTGCAG	9350 fluorescence intensity (a.u.)
GGTTCATCTATACTCGACCTTATCATATGTTCCATTTCTACGGAGTCACCTAGTGCAG	9140 fluorescence intensity (a.u.)
CAGCAGCCTCCAGCACTTGGTCACACACGTCACTCTACCACGGAGTCACCTAGTGCAG	8460 fluorescence intensity (a.u.)
TCACCTTTTAGGTGATAAAGGTGACGGTTCTTTTGGTTTTCGGAGTCACCTAGTGCAG	8260 fluorescence intensity (a.u.)
GACCTATTGTGACCGGTTTTGATTAGTTAAGGGACGCCGGCGGAGTCACCTAGTGCAG	9240 fluorescence intensity (a.u.)
GCCTCGTATTCTCGTGTAATGGCATACTACACCTACTCTACGGAGTCACCTAGTGCAG	8780 fluorescence intensity (a.u.)
CACTCTACAAGGTACCACAGTACATCTTTTCTTTTTTTTTCGGAGTCACCTAGTGCAG	9210 fluorescence intensity (a.u.)

Some of the entries above, set out differently.

| Sequence | binding signal |
| --- | --- |
| CACACGCTCTCTGCTAGTCTGATCGCTCTCGCCATCGCACCGGAGTCACCTAGTGCAG | 9640 fluorescence intensity (a.u.) |
| TGTTTGGGTTGAGCTTCACCAGCTTCTCCGCCACCGCCGACGGAGTCACCTAGTGCAG | 9600 fluorescence intensity (a.u.) |

Next results follow:

Sequence	binding signal
AACATACTCGACTACATGCTTGTTCCTATTGTTATCTACACGGAGTCACCTAGTGCAG	12200 fluorescence intensity (a.u.)
GCCGTCCCGCCCACCGCCGCCACCTACGCGCTCTACCTCTCGGAGTCACCTAGTGCAG	8420 fluorescence intensity (a.u.)
CAGACTTGAGAGGCTAATTTTTTCGTACCTGTAGCTTTATCGGAGTCACCTAGTGCAG	8140 fluorescence intensity (a.u.)
CGACGCAGACACTTGTAGCATTAGATTTCATTGTTTTGTCCGGAGTCACCTAGTGCAG	9350 fluorescence intensity (a.u.)
TGGGTTGTGGCAGTGTCTTATAAGGCTATATTAAGTCTATCGGAGTCACCTAGTGCAG	8060 fluorescence intensity (a.u.)
AGACATCGGAATCCGGACGCTATCCTTCTCGTCTTCTCGTCGGAGTCACCTAGTGCAG	10700 fluorescence intensity (a.u.)
GAGGGGTGGCAGTTGTCGGAGCTAGGGGAGGGAGAGGCGGCGGAGTCACCTAGTGCAG	13500 fluorescence intensity (a.u.)
GCCTTCATCATATTCCCAGCTGGTAACTCTATCCATTGACCGGAGTCACCTAGTGCAG	16400 fluorescence intensity (a.u.)
TTCGTCAGTCATCTGAGCAAGATTTTCTTTGCTATTCCAGCGGAGTCACCTAGTGCAG	8060 fluorescence intensity (a.u.)
ACAAACCCACTATGTTACTATATGAATCATACCTTGTTCGCGGAGTCACCTAGTGCAG	8310 fluorescence intensity (a.u.)
GTCCGCCTCTAGCCATTGCATCGCCATCGCCCATGCGTGACGGAGTCACCTAGTGCAG	8560 fluorescence intensity (a.u.)
TTTTCCGTTGTAACGCATGGGTATCCTCCTAGTAATTTCTCGGAGTCACCTAGTGCAG	8910 fluorescence intensity (a.u.)
GCCTCGCCTCGCCTCGCTCTCGCGCTTCGAATCCCCACGCCGGAGTCACCTAGTGCAG	9130 fluorescence intensity (a.u.)
GGGCGGGTCTTCTCACGCAAGTCCGGGGATGGTTGCCGCTCGGAGTCACCTAGTGCAG	8480 fluorescence intensity (a.u.)
GGGTCCCTCGACATTGCATTGCCTCTTCTTCTTGTTCCAACGGAGTCACCTAGTGCAG	8780 fluorescence intensity (a.u.)
TCTCTTGTTGTATGATACATCTTTTTAAATATATAGTTTTCGGAGTCACCTAGTGCAG	10900 fluorescence intensity (a.u.)
AATTTAAATTTAAGTTTAGATTGTTTGTGTGTTTTTTTTTCGGAGTCACCTAGTGCAG	8760 fluorescence intensity (a.u.)
CTACTCCTCCATCTATCTGTACCGGATTATCCTAATCGCGCGGAGTCACCTAGTGCAG	8040 fluorescence intensity (a.u.)
CATGGGAGGTGTCAACGTTTTTTTTTTATTGTTTTTTTTTCGGAGTCACCTAGTGCAG	9240 fluorescence intensity (a.u.)
CCAAAAACACTCACTCGGCCCACATCACGCCACCACCCCGCGGAGTCACCTAGTGCAG	9750 fluorescence intensity (a.u.)
TTTGTGCTGTATTTGGCTTCCATCACTGTAACATTTCAATCGGAGTCACCTAGTGCAG	9140 fluorescence intensity (a.u.)
TTGTCAGAGTTGATGAGTAGCTGTCCTCCTAGCGCTTTCGCGGAGTCACCTAGTGCAG	9950 fluorescence intensity (a.u.)
TGTTTTTTTTCGCTTTTCTTATTTAAACGGTATTTTTTTCCGGAGTCACCTAGTGCAG	11100 fluorescence intensity (a.u.)
CCATCTCCCGTCTCTCCGCCGCGCGCCGCCTCGTTGCTTTCGGAGTCACCTAGTGCAG	9580 fluorescence intensity (a.u.)
TAATGTTGCCATGCTTTACTTAACTATAGTTTCGAAATTTCGGAGTCACCTAGTGCAG	8570 fluorescence intensity (a.u.)
TATTTCTCTCGCCACAATCTCTGGCGGCGCCACAATCTTACGGAGTCACCTAGTGCAG	8850 fluorescence intensity (a.u.)
TCGGCGGCGAGGTGGTGGCGGTGGCGGTGGTGGGAGTAGTCGGAGTCACCTAGTGCAG	15200 fluorescence intensity (a.u.)

Source: PMC7819943, “Rice protein-binding microarrays: a tool to detect cis-acting elements near promoter regions in rice”
